Results as given in patent publication US7381728B2, “Piperazine derivatives useful for the treatment of gastrointestinal disorders” (Glaxo Group Limited, priority 2004, dated 2008).
Some of these results come from one statement about several compounds together.

Protein sequences, listed by entry. Tags and fused reporters are not part of them.
UniProt Q92847, whole entry: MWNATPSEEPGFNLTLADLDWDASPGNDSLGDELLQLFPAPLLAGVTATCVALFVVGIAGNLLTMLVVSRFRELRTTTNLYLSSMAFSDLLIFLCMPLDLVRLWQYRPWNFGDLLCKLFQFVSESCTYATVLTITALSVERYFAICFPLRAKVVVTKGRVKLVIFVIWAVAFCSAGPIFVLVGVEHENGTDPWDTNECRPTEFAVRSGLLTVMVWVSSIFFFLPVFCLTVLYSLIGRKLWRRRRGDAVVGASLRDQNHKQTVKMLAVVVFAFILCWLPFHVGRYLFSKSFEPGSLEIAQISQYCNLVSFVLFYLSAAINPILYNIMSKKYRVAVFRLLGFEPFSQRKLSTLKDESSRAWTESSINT

Experiments:
Ghrelin Receptor GHS-R [1] = target: T1, Ghrelin Receptor GHS-R (Homo sapiens, UniProt Q92847); assay: GHS-R GTPγS functional agonist assay; type: biochemical; parameters: The open reading frame of GHS-R was transferred from pCDN into pFastBacmam vector; expressed in transfected cells; host or cells: Membranes of HEK293T cells (Lipofectamine, pCDNA3) or of HEK293F cells (BacMam co-transduction with rat Gαo); settings: membranes of HEK293 cells transiently expressing GHS-R (protocols I and II); [35S]GTPγS SPA; read-out: activity in the GHS-R GTPγS functional agonist assays
Ghrelin Receptor GHS-R [2] = target: T1, Ghrelin Receptor GHS-R; assay: GHSR Agonist BACMAM FLIPR Assay; type: cell-based; parameters: The open reading frame of GHS-R was transferred from pCDN into pFastBacmam vector; expressed in transfected cells; host or cells: HEK MSR II cells or U2OS cells transduced with human GHSR BacMam virus; settings: HEK MSR II or U2OS cells transduced with human GHSR BACMAM virus; Fluo 4 calcium fluorescence

Row | SMILES | EC50 (Ghrelin Receptor GHS-R [1]) | EC50 (Ghrelin Receptor GHS-R [2])
1 | COc1ccc(NS(=O)(=O)c2ccc(-c3cc(C)cs3)cc2C)cc1N1C[C@@H](C)N[C@@H](C)C1 [Example 158, N-[3-(cis-3,5-Dimethyl-1-piperazinyl)-4-(methyloxy)phenyl]-2-methyl-4-(4-methyl-2-thienyl)benzenesulfonamide] | < 1000 nM | < 1000 nM
2 | COc1ccc(NS(=O)(=O)c2ccc3ccccc3c2)cc1N1C[C@@H](C)N[C@@H](C)C1 [Example 18, N-[3-(cis-3,5-Dimethyl-1-piperazinyl)-4-(methyloxy)phenyl]-2-naphthalenesulfonamide] | < 1000 nM | < 1000 nM
3 | COc1ccc(N2C[C@@H](C)N[C@@H](C)C2)cc1NS(=O)(=O)c1ccc(-c2ccsc2)cc1F [Example 168, N-[5-(cis-3,5-Dimethyl-1-piperazinyl)-2-(methyloxy)phenyl]-2-fluoro-4-(3-thienyl)benzenesulfonamide] | < 1000 nM | < 1000 nM
4 | Cc1csc(-c2ccc(S(=O)(=O)Nc3cc(N4C[C@@H](C)N[C@@H](C)C4)ccc3F)cc2C)c1 [Example 267, N-[5-(cis-3,5-Dimethyl-1-piperazinyl)-2-fluorophenyl]-3-methyl-4-(4-methyl-2-thienyl)benzenesulfonamide] | < 1000 nM | < 1000 nM
5 | COc1ccc(N2C[C@@H](C)N[C@@H](C)C2)cc1NS(=O)(=O)c1ccc(Cl)c(Cl)c1 [Example 36, 3,4-Dichloro-N-[5-(cis-3,5-dimethyl-1-piperazinyl)-2-(methyloxy)phenyl]benzenesulfonamide] | < 1000 nM | < 1000 nM
6 | COc1ccc(N2C[C@@H](C)N[C@@H](C)C2)cc1NS(=O)(=O)c1ccc(-c2cc(C)cs2)c(C)c1 [Example 176, N-[5-(cis-3,5-Dimethyl-1-piperazinyl)-2-(methyloxy)phenyl]-3-methyl-4-(4-methyl-2-thienyl)benzenesulfonamide] | < 1000 nM | < 1000 nM
7 | COc1ccc(NS(=O)(=O)c2cccc3ccccc23)cc1N1C[C@@H](C)N[C@@H](C)C1 [Example 5, N-[3-(cis-3,5-Dimethyl-1-piperazinyl)-4-(methyloxy)phenyl]-1-naphthalenesulfonamide] | < 1000 nM | < 1000 nM
8 | COc1ccc(N2C[C@@H](C)N[C@@H](C)C2)cc1NS(=O)(=O)c1ccc(-c2cscc2C)cc1 [Example 162, N-[5-(cis-3,5-Dimethyl-1-piperazinyl)-2-(methyloxy)phenyl]-4-(4-methyl-3-thienyl)benzenesulfonamide] | < 1000 nM | < 1000 nM
9 | COc1ccc(NS(=O)(=O)c2ccc(-c3cc(C)cs3)cc2Cl)cc1N1C[C@@H](C)N[C@@H](C)C1 [Example 161, 2-Chloro-N-[3-(cis-3,5-dimethyl-1-piperazinyl)-4-(methyloxy)phenyl]-4-(4-methyl-2-thienyl)benzenesulfonamide] | < 1000 nM | < 1000 nM
10 | COc1ccc(N2C[C@@H](C)N[C@@H](C)C2)cc1NS(=O)(=O)c1cc(C)c(Br)s1 [Example 78, 5-Bromo-N-[5-(cis-3,5-dimethyl-1-piperazinyl)-2-(methyloxy)phenyl]-4-methyl-2-thiophenesulfonamide] | < 1000 nM | < 1000 nM
11 | COc1ccc(N2C[C@@H](C)N[C@@H](C)C2)cc1NS(=O)(=O)c1ccc(-c2cccc(C)n2)cc1 [Example 126, N-[5-(cis-3,5-Dimethyl-1-piperazinyl)-2-(methyloxy)phenyl]-4-(6-methyl-2-pyridinyl)benzenesulfonamide] | < 1000 nM | < 1000 nM
12 | COc1ccc(NS(=O)(=O)c2ccc(-c3cc(F)cc(F)c3)cc2)cc1N1C[C@@H](C)N[C@@H](C)C1 [Example 146, N-[3-(cis-3,5-Dimethyl-1-piperazinyl)-4-(methyloxy)phenyl]-3′,5′-difluoro-4-biphenylsulfonamide] | < 1000 nM | < 1000 nM
13 | COc1ccc(N2C[C@@H](C)N[C@@H](C)C2)cc1NS(=O)(=O)c1ccc(-c2cccc(C)n2)cc1C [Example 178, N-[5-(cis-3,5-Dimethyl-1-piperazinyl)-2-(methyloxy)phenyl]-2-methyl-4-(6-methyl-2-pyridinyl)benzenesulfonamide] | < 1000 nM | < 1000 nM
14 | COc1ccc(NS(=O)(=O)c2ccc(Br)c(F)c2)cc1N1C[C@@H](C)N[C@@H](C)C1 [Example 50, 4-Bromo-N-[3-(cis-3,5-dimethyl-1-piperazinyl)-4-(methyloxy)phenyl]-3-fluorobenzenesulfonamide] | < 1000 nM | < 1000 nM
15 | COc1ccc(NS(=O)(=O)c2ccc(-c3ccc(F)cc3F)s2)cc1N1C[C@@H](C)N[C@@H](C)C1 [Example 212, 5-(2,4-Difluorophenyl)-N-[3-(cis-3,5-dimethyl-1-piperazinyl)-4-(methyloxy)phenyl]-2-thiophenesulfonamide] | < 1000 nM | < 1000 nM
16 | COc1ccc(NS(=O)(=O)c2ccc(-c3ccsc3)s2)cc1N1C[C@@H](C)N[C@@H](C)C1 [Example 134, N-[3-(cis-3,5-Dimethyl-1-piperazinyl)-4-(methyloxy)phenyl]-2,3′-bithiophene-5-sulfonamide] | < 1000 nM | < 1000 nM
17 | COCc1cccc(-c2ccc(S(=O)(=O)Nc3cc(N4C[C@@H](C)N[C@@H](C)C4)ccc3OC)cc2)c1 [Example 117, N-[5-(cis-3,5-Dimethyl-1-piperazinyl)-2-(methyloxy)phenyl]-3′-[(methyloxy)methyl]-4-biphenylsulfonamide] | < 1000 nM | < 1000 nM
18 | COc1ccc(N2C[C@@H](C)N[C@@H](C)C2)cc1NS(=O)(=O)c1ccc(-c2cccc(C)n2)cc1Cl [Example 167, 2-Chloro-N-[5-(cis-3,5-dimethyl-1-piperazinyl)-2-(methyloxy)phenyl]-4-(6-methyl-2-pyridinyl)benzenesulfonamide] | < 1000 nM | < 1000 nM
19 | C[C@@H]1CN(c2ccc(F)c(NS(=O)(=O)c3ccc(-c4ccoc4)cc3Cl)c2)C[C@H](C)N1 [Example 232, 2-Chloro-N-[5-(cis-3,5-dimethyl-1-piperazinyl)-2-fluorophenyl]-4-(3-furanyl)benzenesulfonamide] | < 1000 nM | < 1000 nM
20 | COc1ccc(N2C[C@@H](C)N[C@@H](C)C2)cc1NS(=O)(=O)c1ccc(-c2ccc(C)o2)c(F)c1 [Example 248, N-[5-(cis-3,5-Dimethyl-1-piperazinyl)-2-(methyloxy)phenyl]-3-fluoro-4-(5-methyl-2-furanyl)benzenesulfonamide] | < 1000 nM | < 1000 nM
21 | COc1ccc(N2C[C@@H](C)N[C@@H](C)C2)cc1NS(=O)(=O)c1ccc(-c2cnccc2OC)s1 [Example 137, N-[5-(cis-3,5-Dimethyl-1-piperazinyl)-2-(methyloxy)phenyl]-5-[4-(methyloxy)-3-pyridinyl]-2-thiophenesulfonamide] | < 1000 nM | < 1000 nM
22 | COCc1cccc(-c2sc(S(=O)(=O)Nc3cc(N4C[C@@H](C)N[C@@H](C)C4)ccc3OC)cc2C)c1 [Example 194, N-[5-(cis-3,5-Dimethyl-1-piperazinyl)-2-(methyloxy)phenyl]-4-methyl-5-{3-[(methyloxy)methyl]phenyl}-2-thiophenesulfonamide] | < 1000 nM | < 1000 nM
23 | COc1ccc(N2C[C@@H](C)N[C@@H](C)C2)cc1NS(=O)(=O)c1ccc(C(F)(F)F)cc1Br [Example 255, 2-Bromo-N-[5-(cis-3,5-dimethyl-1-piperazinyl)-2-(methyloxy)phenyl]-4-(trifluoromethyl)benzenesulfonamide] | < 1000 nM | < 1000 nM
24 | Cc1cc(-c2ccoc2)ccc1S(=O)(=O)Nc1cc(N2C[C@@H](C)N[C@@H](C)C2)ccc1F [Example 234, N-[5-(cis-3,5-Dimethyl-1-piperazinyl)-2-fluorophenyl]-4-(3-furanyl)-2-methylbenzenesulfonamide] | < 1000 nM | < 1000 nM
25 | COc1ccc(N2C[C@@H](C)N[C@@H](C)C2)cc1NS(=O)(=O)c1ccc(-c2ccc(F)cc2F)cc1 [Example 297, N-[5-(cis-3,5-Dimethyl-1-piperazinyl)-2-(methyloxy)phenyl]-2′,4′-difluoro-4-biphenylsulfonamide] | < 1000 nM | < 1000 nM
26 | COc1cc(Br)ccc1S(=O)(=O)Nc1cccc(N2C[C@@H](C)N[C@@H](C)C2)c1 [Example 251, 4-Bromo-N-[3-(cis-3,5-dimethyl-1-piperazinyl)phenyl]-2-(methyloxy)benzenesulfonamide] | < 1000 nM | < 1000 nM
27 | Cc1ccc(N2C[C@@H](C)N[C@@H](C)C2)cc1NS(=O)(=O)c1ccc(Br)cc1 [Example 81, 4-Bromo-N-[5-(cis-3,5-Dimethyl-1-piperazinyl)-2-methylphenyl]benzenesulfonamide] | < 1000 nM | < 1000 nM
28 | COc1ccc(NS(=O)(=O)c2cccc3c(N(C)C)cccc23)cc1N1C[C@@H](C)N[C@@H](C)C1 [Example 4, 5-(Dimethylamino)-N-[3-(cis-3,5-dimethyl-1-piperazinyl)-4-(methyloxy)phenyl]-1-naphthalenesulfonamide] | < 1000 nM | < 1000 nM
29 | CCOc1ccccc1-c1ccc(S(=O)(=O)Nc2ccc(OC)c(N3C[C@@H](C)N[C@@H](C)C3)c2)s1 [Example 213, N-[3-(cis-3,5-Dimethyl-1-piperazinyl)-4-(methyloxy)phenyl]-5-[2-(ethyloxy)phenyl]-2-thiophenesulfonamide] | < 1000 nM | < 1000 nM
